The subject of the test is Swiss mice, Sarcoma 180 sc, mean tumor weight T/C. Kind of test: NCI In Vivo Anticancer Drug Screen. Data for tumor model Sarcoma 180 (subcutaneous) in Swiss mice. The conditions noted are these: T/C endpoint: mean tumor weight, higher T/C = larger tumour; for T/C: evaluated on day 8. Here is the method: The antitumor activity of compounds was measured in mice bearing transplantable tumors. Survival or tumor size were measured and the results are expressed as the measurement made in the treated group (T) divided by the measurement made in the vehicle treated control group (C). The tumor model used in this assay is Sarcoma 180 (subcutaneous) in Swiss mice

Setting [1] is: dose: 25.0 mg/kg/injection, schedule: Q#A X014 (ip), vehicle: methylcellulose (MC).
Setting [2] is: dose: 37.5 mg/kg/injection, schedule: Q#A X014 (ip), vehicle: methylcellulose (MC).
Setting [3] is: dose: 11.0 mg/kg/injection, schedule: Q#A X014 (ip), vehicle: methylcellulose (MC).
The mark [4] stands for this setting: dose: 16.5 mg/kg/injection, schedule: Q#A X014 (ip), vehicle: methylcellulose (MC).
Setting [5] is: dose: 4.5 mg/kg/injection, schedule: Q#A X014 (ip), vehicle: methylcellulose (MC).

Consider nine compounds from PubChem BioAssay AID342 (DTP/NCI, 2004).

The structures appear in SMILES notation. The list is a part of this screen's results and no random one: it covers a few groups of compounds. Other doses and runs of a compound may be missing. T/C: endpoint of the treated group in % of that of the vehicle group. Schedules are NCI's codes, taken here to give the interval after Q, in days (D) or hours (H), and the number of doses after X. Some schedule codes hold Z or #, which are not explained here. Some T/C values are followed by the survivors on the day toxicity was checked; where neither a count nor a note follows, no animal had died by that day. Some doses were run more than once; the results are listed from low to high. Some entries give survivors of the animals treated and no T/C: the source files T/C as zero there, which appears to mark a toxic dose or a test without result, not a measured value. Counts of survivors are from the toxicity check, whose day is not always given; animals may have died later.

For the compound `CCN(CCCl)/N=N/c1nc2nc(N)[nH]c(=O)c2[nH]1`, the T/C was 86 % of control (dose: 12.0 mg/kg/injection, schedule: Q#A X014 (ip), vehicle: methylcellulose (MC)); 90 % of control [5 of 6 alive] (dose: 17.5 mg/kg/injection, schedule: Q#A X014 (ip), vehicle: methylcellulose (MC)); 110 % of control [4 of 6 alive] under setting [2]. Under setting [1], the survivor count is reported as 3 of 6.
As for `NC(CC(=O)O)c1cccc(N(CCCl)CCCl)c1` (centres undefined), the T/C is, setting by setting: (dose: 11.0 mg/kg/injection, schedule: Q#A X014 (ip), vehicle: carboxymethylcellulose (CMC)) 64 % of control; under setting [3], 28 % of control [5 of 6 alive]; (dose: 16.5 mg/kg/injection, schedule: Q#A X014 (ip), vehicle: carboxymethylcellulose (CMC)) 42 % of control [5 of 6 alive]; under setting [4], 16 % of control; (dose: 25.0 mg/kg/injection, schedule: Q#A X014 (ip), vehicle: carboxymethylcellulose (CMC)) 6 % of control; under setting [1], 17 % of control [5 of 6 alive]. For the same compound, the survivor count under setting [2] was 3 of 6.
As to `CN(CCCl)CC1OC(O)C(O)C(O)C1O` (centres undefined), the T/C is 50 % of control [5 of 6 alive] (dose: 9.5 mg/kg/injection, schedule: Q#A X014 (ip), vehicle: saline); 41 % of control (dose: 14.5 mg/kg/injection, schedule: Q#A X014 (ip), vehicle: saline); 59 % of control (dose: 15.0 mg/kg/injection, schedule: Q#A X014 (ip), vehicle: saline); 66 % of control (dose: 22.0 mg/kg/injection, schedule: Q#A X014 (ip), vehicle: methylcellulose (MC)); 32 and 61 % of control [4 of 6 alive] (dose: 22.0 mg/kg/injection, schedule: Q#A X014 (ip), vehicle: saline); 30 % of control (dose: 22.5 mg/kg/injection, schedule: Q#A X014 (ip), vehicle: saline). The T/C (dose: 33.0 mg/kg/injection, schedule: Q#A X014 (ip), vehicle: methylcellulose (MC)) was 34 % of control [4 of 6 alive]; the T/C (dose: 33.0 mg/kg/injection, schedule: Q#A X014 (ip), vehicle: saline) is 20 and 47 % of control [5 of 6 alive]; the T/C (dose: 33.5 mg/kg/injection, schedule: Q#A X014 (ip), vehicle: saline) is 17 % of control [5 of 6 alive]. Besides, the survivor count (dose: 50.0 mg/kg/injection, schedule: Q#A X014 (ip), vehicle: saline) is 1 of 6.
For `O=NN1CCN/C1=N\[N+](=O)[O-]`, the T/C by setting is: (dose: 20.0 mg/kg/injection, schedule: Q#A X014 (ip), vehicle: methylcellulose (MC)) 149 % of control; (dose: 40.0 mg/kg/injection, schedule: Q#A X014 (ip), vehicle: methylcellulose (MC)) 130 % of control [4 of 6 alive]; (dose: 80.0 mg/kg/injection, schedule: Q#A X014 (ip), vehicle: methylcellulose (MC)) 113 % of control [5 of 6 alive].
Turning to `CO/C(N)=N\[N+](=O)[O-]`, the T/C runs as follows: (dose: 93.0 mg/kg/injection, schedule: Q01DX007 (ip), vehicle: saline) 67 % of control; (dose: 140.0 mg/kg/injection, schedule: Q01DX007 (ip), vehicle: saline) 83 % of control. Also, the survivor count (dose: 280.0 mg/kg/injection, schedule: Q01DX007 (ip), vehicle: saline) is reported as 2 of 6.
Regarding `CCOP(=O)(NCCCO)N(CCCl)CCCl` (centres undefined), the T/C (dose: 150.0 mg/kg/injection, schedule: Q#A X014 (ip), vehicle: methylcellulose (MC)) was 69 % of control. Moreover, the survivor count (dose: 200.0 mg/kg/injection, schedule: Q#A X014 (ip), vehicle: methylcellulose (MC)) is listed as 3 of 6.
For `O=C(O)/C=C\c1ccccc1N(CCCl)CCCl`, the T/C is 88 % of control [5 of 6 alive] under setting [5]; 66 % of control (dose: 6.5 mg/kg/injection, schedule: Q#A X014 (ip), vehicle: methylcellulose (MC)); 72 % of control (dose: 6.6 mg/kg/injection, schedule: Q01DX007 (ip), vehicle: other); 56 % of control [5 of 6 alive] (dose: 9.9 mg/kg/injection, schedule: Q01DX007 (ip), vehicle: other); 40 % of control (dose: 10.0 mg/kg/injection, schedule: Q#A X014 (ip), vehicle: methylcellulose (MC)); 77 % of control under setting [3]. Besides, the T/C is, setting by setting: (dose: 11.0 mg/kg/injection, schedule: Q#A X014 (ip), vehicle: saline) 24 % of control; (dose: 14.8 mg/kg/injection, schedule: Q01DX007 (ip), vehicle: other) 32 % of control [5 of 6 alive]; (dose: 15.0 mg/kg/injection, schedule: Q#A X014 (ip), vehicle: methylcellulose (MC)) 27 % of control; under setting [4], 93 % of control [5 of 6 alive]; (dose: 16.5 mg/kg/injection, schedule: Q#A X014 (ip), vehicle: saline) 21 % of control; under setting [1], 54 % of control. The T/C (dose: 25.0 mg/kg/injection, schedule: Q#A X014 (ip), vehicle: saline) is 22 % of control [4 of 6 alive]. In addition, the survivor count is reported as 3 of 6 (dose: 7.4 mg/kg/injection, schedule: Q#A X014 (ip), vehicle: other); 1 of 6 (dose: 11.1 mg/kg/injection, schedule: Q#A X014 (ip), vehicle: other); 2 of 6 under setting [2].
As to `CC(C)/C(=N\P(=O)(c1ccccc1)c1ccccc1)N(C)C`, the T/C reads like this: (dose: 31.0 mg/kg/injection, schedule: Q01DX007 (ip), vehicle: carboxymethylcellulose (CMC)) 83 % of control [6 of 7 alive]; (dose: 62.5 mg/kg/injection, schedule: Q01DX007 (ip), vehicle: carboxymethylcellulose (CMC)) 91 % of control [5 of 7 alive]. Also, the survivor count is recorded as 4 of 7 (dose: 125.0 mg/kg/injection, schedule: Q01DX007 (ip), vehicle: carboxymethylcellulose (CMC)); 0 of 6 (dose: 250.0 mg/kg/injection, schedule: Q01DX007 (ip), vehicle: carboxymethylcellulose (CMC)); 0 of 7 (dose: 500.0 mg/kg/injection, schedule: Q01DX007 (ip), vehicle: carboxymethylcellulose (CMC)).
Turning to `CCOC(=O)COc1ccc(N(CCCl)CCCl)cc1`, the T/C is 74 % of control (dose: 2.0 mg/kg/injection, schedule: Q#A X014 (ip), vehicle: methylcellulose (MC)); 50 % of control (dose: 3.0 mg/kg/injection, schedule: Q#A X014 (ip), vehicle: methylcellulose (MC)); 26 % of control under setting [5]; 18 % of control (dose: 6.75 mg/kg/injection, schedule: Q#A X014 (ip), vehicle: methylcellulose (MC)).
